Results are given in words; binding and its absence hold for the method and conditions named. Some entries that bind do so weakly or less than the wild type.
B1: 2BBIck81 (designed binder)
chain: DDESSKPCCDQCACTKSNPPQCRCSDMRLNSCHSACKSCACYNLYGWTCFCVDITDFCYEPCKPSEDDKEN
B2: BBI-VEGF1 (designed binder)
chain: DDESSKPCCDQCACYNLYGWTCRCSDMRLNSCHSACKSCICALSYPAQCFCVDLTDFCEPCKPSEDDKEN
B3: 1BBIck81 (designed binder)
chain: DDESSKPCCDQCACYNLYGWTCRCSDMRLNSCHSACKSCICALSYPAQCFCVDITDFCYEPCKPSEDDKEN

Protein sequences, listed by entry. Tags and fused reporters are not part of them. Lines headed by an entry give the natural chain unless they say otherwise; changes in a name come on top. Chains listed by the source or under a name are the forms on record and can include a tag or linker.
human VEGF165 (P15692, form named): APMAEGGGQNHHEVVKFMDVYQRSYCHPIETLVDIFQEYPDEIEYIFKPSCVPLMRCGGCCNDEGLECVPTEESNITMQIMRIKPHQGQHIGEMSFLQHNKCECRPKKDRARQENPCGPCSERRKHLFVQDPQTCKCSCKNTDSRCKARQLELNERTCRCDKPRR

Each binder was assayed against human VEGF165 (human) (UniProt P15692) (assay: phage ELISA on hVEGF165, anti-M13-HRP, ABTS, A405 after 30 minutes (n=3)).

binding, binds:
SLWPAFW [SEQ ID NO 4], TLWPTFW [SEQ ID NO 2], NLWPHFW [SEQ ID NO 3], APWNLHI [SEQ ID NO 6], APWNSHI [SEQ ID NO 5], TLWPSYW [SEQ ID NO 7], YNLYGWT [SEQ ID NO 1]

What follows are binders tested against VegF (PeproTech), labeled with biotin (UniProt P15692) (assay: ECL competition assay (BioVeris): biotinylated VegF on streptavidin beads, competitor ECL labeled Anti-VegF antibody).

binding, binds:
B1, ACYNLYGWTC [synthesized CK37281 peptide]

What follows are binders tested against human VEGF165 (human) (UniProt P15692) (assay: BIAcore 3000, hVEGF165 coupled to a CM5 chip (295 RU printed on the sheet), refolded BBI-VEGF injected).

binding, binds:
B2

Each binder was assayed against human VEGF165 (human) (UniProt P15692) (assay: phage display panning of the PhD C7C library on hVEGF165, 3 rounds, clones sequenced).

binding, binds:
SLWPAFW [SEQ ID NO 4], APWNLHI [SEQ ID NO 10], TLWPTFW [SEQ ID NO 2], SLWPAFW [SEQ ID NO 12], NLWPHFW [SEQ ID NO 3], TLWPSYW [SEQ ID NO 11], APWNLHI [SEQ ID NO 6], APWNSHI [SEQ ID NO 9], APWNSHI [SEQ ID NO 5], TLWPSYW [SEQ ID NO 7], YNLYGWT [SEQ ID NO 8], YNLYGWT [SEQ ID NO 1]

These binders were tested against VegF (PeproTech), labeled with biotin (UniProt P15692) (assay: ECL competition assay (BioVeris), competitor: labeled Anti-VegF antibody; 2BBIck81 series 12.5 to 500 ng/ml).

binding, binds:
B1

These binders were tested against human VEGF165 (human) (UniProt P15692) (assay: phage ELISA, equivalent amounts of phage on hVEGF165, anti-M13-HRP, ABTS, A405 after 30 min (n=3)).

binding, binds:
SLWPAFW [SEQ ID NO 4], TLWPTFW [SEQ ID NO 2], NLWPHFW [SEQ ID NO 3], APWNLHI [SEQ ID NO 6], APWNSHI [SEQ ID NO 5], TLWPSYW [SEQ ID NO 7], YNLYGWT [SEQ ID NO 1]

Each binder was assayed against human VEGF165 (human) (UniProt P15692) (assay: BIAcore 3000, VEGF165 coupled to a CM5 chip, TNF-alpha reference lane (Resp. Diff.), peptide injected in twofold dilutions [A]).

binding, binds:
ACYNLYGWTC (biotinylated (site not stated)) [biotinylated peptide CK37281]

What follows are binders tested against VegF (PeproTech), labeled with biotin (UniProt P15692) (assay: ECL competition assay (BioVeris), competitor: labeled Anti-VegF antibody).

binding, binds:
B3, B1, ACYNLYGWTC [synthesized CK37281 peptide]

What follows are binders tested against human VEGF165 (human) (UniProt P15692) (assay: SPR (BIAcore 3000), VEGF165 coupled to CM5; trypsin and chymotrypsin in the other lanes).

binding, binds:
B2
